Tests used:
Format in all cases: cell-based
Huh7 = assay: MTT antiproliferative assay, Huh7; settings: Homo sapiens, Huh-7, 72 h, mean ± SD of three experiments, read-out: In vitro antiproliferative activity (IC50) Huh7
Description: (§1) Human cancer cell lines (SMMC-7721, Bel7402, Huh7, HCT116), drug-resistant cell lines (Bel7402/5-FU), and human normal hepatocyte cells (LO2) were purchased from Institute of Cell Biology (Shanghai, China).
(§2) Briefly, appropriate cells (1 × 10^4 cells/mL) were placed into 96-well plates in 100 μL of DMEM medium overnight. Then adding 100 μL of evaluated compounds into individual well for 72 h while 0.1% DMSO aqueous solution was treated as the negative control. After incubation with 30 μl MTT (5 mg/mL) for 4 h in all well, and ELISA plate reader measured absorbance of each well at 570 nm. Then calculating cytotoxicity effect of evaluated compounds through the formula: Cell inhibitory percentage (%) = (1−OD of treatment group/OD of control) × 100%. GraphPadPrism (4.03) calculated data to afford Corresponding IC50 values.

Bel7402 = assay: MTT antiproliferative assay, Bel7402; settings: Homo sapiens, Bel-7402, 72 h, mean ± SD of three experiments, read-out: In vitro antiproliferative activity (IC50) Bel7402
Description: as §1, §2

Bel7402/5-FU = assay: MTT antiproliferative assay, Bel7402/5-FU; settings: Homo sapiens, drug-resistant HCC cells, 72 h, mean ± SD of three experiments, read-out: In vitro antiproliferative activity (IC50) Bel7402/5-FU
Description: as §1, §2

[1] = tested on: SUMM-7721, Bel7402, Huh7, HCT116 and Bel7402/5FU cells; assay: MTT antiproliferative assay, range over the five cancer cell lines; settings: Homo sapiens, read-out: IC50 values over five cancer cell lines
Description: as §1, §2

HCT116 = assay: MTT antiproliferative assay, HCT116; settings: Homo sapiens, HCT-116, 72 h, mean ± SD of three experiments, read-out: In vitro antiproliferative activity (IC50) HCT116
Description: as §1, §2

SMMC-7721 = assay: MTT antiproliferative assay, SMMC-7721; settings: Homo sapiens, 72 h, mean ± SD of three experiments, read-out: In vitro antiproliferative activity (IC50) SMMC-7721
Description: as §1, §2

In the case of `O=C(CCCCCCC(=O)Nc1ccccc1)NO` [SAHA, Vorinostat, reference compound], the IC50 (Huh7) is reported as 5.07 ± 0.64 µM, the IC50 (Bel7402) is reported as 4.72 ± 0.61 µM and the IC50 (Bel7402/5-FU) is reported as 9.83 ± 0.89 µM. For the same compound, the IC50 [1] was 4.72 to 9.83 µM, the IC50 (HCT116) was 4.97 ± 0.56 µM and the IC50 (SMMC-7721) was 5.23 ± 0.48 µM.
